{"source": "patent US20120294826A1", "about": "“METHODS, KITS AND COMPOSITIONS FOR AMELIORATING ADVERSE EFFECTS ASSOCIATED WITH TRANSFUSION OF AGED RED BLOOD CELLS” (priority 2009, published 2012)", "test_system": "E. coli", "experiment": "In vitro bacterial growth in plasma from transfused mice", "assay_type": "cell-based", "procedure": "Results shown in FIG. 15A are representative of two experiments. C57BL/6 mice were infused with a sub-clinical dose of LPS (E. coli 0111:B4; 30 μg per mouse by tail vein injection) followed by transfusion of 400 μL of fresh RBCs or stored RBCs. Mice were sacrificed at 24-hour post-transfusion and plasma cytokines measured (n=5 per group). *P=0.008, **P=0.003 as compared to mice infused LPS+ stored RBCs. To obtain the results shown in FIG. 15B, plasma (100 μL) was obtained from mice 2-hours post-transfusion with 400 μL of fresh RBCs (n=15), stored RBCs (n=24), stored RBC-derived supernatant (n=12), washed stored RBCs (n=13), or ghosts prepared from stored RBCs (n=8). […] Bacterial growth was monitored every 30 minutes by absorbance at 600 nm for up to 5 hours. […] Bacterial growth was monitored every 30 minutes by absorbance at 600 nm for up to 5 hours in replicates of 5 per group. […]\nA pathogenic strain of E. coli, obtained from an anonymous patient with a urinary tract infection, was used. […] Bacterial growth was measured by absorbance at 600 nm. […]\nSignificance between two means was calculated using a two-tailed Mann-Whitney U test. Significance relevant to bacterial growth in vitro was determined by converting each growth curve to an area under the curve (AUC) value followed by a 2-tailed Mann-Whitney U test to compare mean AUC for each group. […]", "note": "At least one compound was matched to its structure with a doubt left."}
{"smiles": "CC(=O)N(O)CCCCCNC(=O)CCC(=O)N(O)CCCCCNC(=O)CCC(=O)N(O)CCCCCN", "note": "[DFO, deferoxamine]", "values": [{"measurement": "bacterial growth", "setting": "20 μM added to pooled plasma from mice transfused with stored RBCs, absorbance at 600 nm up to 5 hours", "value": "partially inhibited"}]}
{"smiles": "C=CC1=C(C)c2cc3[nH]c(cc4nc(cc5[nH]c(cc1n2)c(C)c5CCC(=O)O)C(CCC(=O)O)=C4C)c(C)c3C=C", "note": "[protoporphyrin IX]", "values": [{"measurement": "bacterial growth", "setting": "added to pooled plasma from mice transfused with fresh RBCs, 20 μM (bovine serum albumin 80 μM)", "value": "not"}]}
